Laboratory results published in patent US9511052B2, “Mineralocorticoid receptor antagonists” (Merck Sharp & Dohme Corp., priority 2012, dated 2016).
The match of structure and compound is tentative.

Protein sequences, listed by entry. Tags and fused reporters are not part of them.
UniProt P08235, whole entry: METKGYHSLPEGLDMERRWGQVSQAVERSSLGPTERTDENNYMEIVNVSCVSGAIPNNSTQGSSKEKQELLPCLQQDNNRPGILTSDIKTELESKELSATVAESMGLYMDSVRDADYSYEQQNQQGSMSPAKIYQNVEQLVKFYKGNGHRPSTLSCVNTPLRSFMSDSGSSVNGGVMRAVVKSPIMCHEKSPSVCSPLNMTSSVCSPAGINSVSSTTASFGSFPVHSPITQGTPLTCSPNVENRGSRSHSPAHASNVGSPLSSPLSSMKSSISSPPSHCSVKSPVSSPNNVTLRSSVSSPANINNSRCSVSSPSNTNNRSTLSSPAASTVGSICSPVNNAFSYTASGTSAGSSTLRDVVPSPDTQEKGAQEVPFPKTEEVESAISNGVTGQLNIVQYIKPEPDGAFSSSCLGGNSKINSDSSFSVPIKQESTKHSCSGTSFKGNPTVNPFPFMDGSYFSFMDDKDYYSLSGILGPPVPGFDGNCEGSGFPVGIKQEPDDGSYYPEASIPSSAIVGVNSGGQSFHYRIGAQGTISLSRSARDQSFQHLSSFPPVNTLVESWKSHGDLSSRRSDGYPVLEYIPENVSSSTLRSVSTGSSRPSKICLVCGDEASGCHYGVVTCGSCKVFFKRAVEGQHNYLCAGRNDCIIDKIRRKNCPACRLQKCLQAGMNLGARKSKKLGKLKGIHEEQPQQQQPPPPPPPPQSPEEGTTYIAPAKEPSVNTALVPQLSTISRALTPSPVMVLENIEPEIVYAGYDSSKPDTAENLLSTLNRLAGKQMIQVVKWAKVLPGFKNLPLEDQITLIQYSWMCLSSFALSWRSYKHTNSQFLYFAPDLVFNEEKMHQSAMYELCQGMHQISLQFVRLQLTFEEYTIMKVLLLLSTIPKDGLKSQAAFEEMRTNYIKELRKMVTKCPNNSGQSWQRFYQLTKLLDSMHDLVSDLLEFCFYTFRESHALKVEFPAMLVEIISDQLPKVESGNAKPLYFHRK

Biological target: full-length human Mineralocorticoid Receptor (MR) (Homo sapiens, UniProt P08235)
Experiment: human MR NH Pro assay (PathHunter Protein:Protein interaction assay), MR antagonism
Conditions: read-out: IP; IP = inflection point of the dose-response curve; CHO-K1 cells overexpressing human MR, aldosterone about 0.3 nM to about 1 nM, 6 hours at 37° C.
Description: The activity of the compounds of the present invention regarding mineralocorticoid receptor antagonism can be evaluated using the following assay.
Assessment of MR Potency in HMR NH Pro Assay
The human MR NH Pro assay is a commercially available PathHunter™ Protein:Protein interaction assay (DiscoveRx; http://www.discoverx.com/nhrs/prod-nhrs.php) that measures the ability of compounds to antagonize full-length human Mineralocorticoid Receptor (MR) binding to a coactivator peptide. […]
Compounds were assessed for MR antagonist activity by incubating the cells with a titrating dose of compound in F12K w/Glutamine and phenol red culture media (Invitrogen 11765-047) supplemented with 1% Charcoal/Dextran Treated FBS (Hyclone #SH30068.01) and aldosterone (0.3 nM to about 1 nM) for 6 hours at 37° C. Cells were then treated with DiscoveRx detection reagent for 1 hour at rt and read using an Envision luminescence plate reader. % activity was measured relative to cells treated with aldosterone alone and IC50 and IP values were calculated using ADA software. […]
2. Cells are collected with 0.05% trypsin and the cell suspension is spun and resuspended in a volume of F12+1.5% CD-FBS and counted. […]
8. Plates were read on Envision (PerkinElmer) luminesence plate reader and analyzed using ADA.

## CCC(c1ccc(C#N)cc1)(C(C)O)n1ncc2c(NS(C)(=O)=O)cccc21 (single isomer, unassigned)
  IC50: 343 nM
